Experimental data published in PubChem BioAssay AID330 (DTP/NCI, 2004).
The list shows only some results of the screen, not a fair sample: it gathers tests that were run many times, whatever their T/C, doses with no T/C, and many T/C values between a quarter and a half above the control. Other doses and runs of a compound stand elsewhere. T/C: endpoint of the treated group in % of that of the vehicle group. Some entries give survivors of the animals treated and no T/C: the source files T/C as zero there, which appears to mark a toxic dose or a test without result, not a measured value. Some survivor counts are full or nearly so, which does not show that the dose was tolerated: the source hardly ever lists a survival T/C far under the control, and the zero likely stands for such cases as well. Survivors were counted at the toxicity check, usually on the fifth day, unless a day is given; later deaths do not show. Schedule codes are those of the source, taken here to give the interval after Q, in days (D) or hours (H), and the number of doses after X. Some doses were run more than once; the values are given in rising order. For survival time, this PubChem deposit counts one and a half times the control or more as active, and values a quarter to a half above the control carry no call in these data; other NCI protocols may use other cut-offs. Some T/C values carry the count of animals alive at the toxicity check (mostly the fifth day); without a count, all were alive then.

Test system: P388 leukemia ip, CD2F1 mice, survival T/C
Test: NCI In Vivo Anticancer Drug Screen. Data for tumor model P388 Leukemia (intraperitoneal) in CD2F1 (CDF1) mice
Details: T/C endpoint: median survival time, higher T/C = longer survival
[1] = dose: 200.0 mg/kg/injection, schedule: Q01DX009 (ip), vehicle: Klucel (hydroxypropylcellulose) (HPC)
[2] = dose: 200.0 mg/kg/injection, schedule: Q01DX005 (ip), vehicle: saline with Tween-80
[3] = dose: 400.0 mg/kg/injection, schedule: Q04DX003 (ip), vehicle: Klucel (hydroxypropylcellulose) (HPC)
[4] = dose: 25.0 mg/kg/injection, schedule: Q04DX003 (ip), vehicle: saline
[5] = dose: 50.0 mg/kg/injection, schedule: Q01DX009 (ip), vehicle: saline + Tween-80 + alcohol

Q: `Fc1ccc(NC(=S)SCc2ccc(Cl)c(Cl)c2)cc1F` was tested. Which T/C (dose: 25.0 mg/kg/injection, schedule: Q01DX009 (ip), vehicle: Klucel (hydroxypropylcellulose) (HPC)) did it give?
A: 133 % of control

Q: What about the T/C (dose: 50.0 mg/kg/injection, schedule: Q01DX009 (ip), vehicle: Klucel (hydroxypropylcellulose) (HPC)) of the same molecule?
A: 128 and 133 % of control

Q: What about the survivor count [1] of the same molecule?
A: 0 of 6

Q: What about the survivor count (dose: 400.0 mg/kg/injection, schedule: Q01DX009 (ip), vehicle: Klucel (hydroxypropylcellulose) (HPC)) of the same molecule?
A: 0 of 6

Q: Which results are given for `CCC[CH2][Sn]([CH2]CCC)([O]c1ccccc1C=Nc1ccc(F)cc1)[O]c1ccccc1C=Nc1ccc(F)cc1`?
A: survivor count (dose: 25.0 mg/kg/injection, schedule: Q01DX005 (ip), vehicle: saline with Tween-80): 6 of 6; survivor count (dose: 50.0 mg/kg/injection, schedule: Q01DX005 (ip), vehicle: saline with Tween-80): 0 of 6; survivor count (dose: 100.0 mg/kg/injection, schedule: Q01DX005 (ip), vehicle: saline with Tween-80): 0 of 6; survivor count [2]: 0 of 6

Q: Which survivor count [3] does the source give for `CCC(C(=O)N(C)C)n1nc(Br)c(Br)c1C` (stereo not given) here?
A: 6 of 6

Q: With `O=C1CC([Se]c2ccccc2)C(=O)N1` (stereo not given) as the molecule, how does the survivor count (dose: 100.0 mg/kg/injection, schedule: Q04DX003 (ip), vehicle: Klucel (hydroxypropylcellulose) (HPC)) read?
A: 2 of 6 and 3 of 6

Q: And the survivor count (dose: 200.0 mg/kg/injection, schedule: Q04DX003 (ip), vehicle: Klucel (hydroxypropylcellulose) (HPC))?
A: 0 of 6

Q: What about the survivor count [3] of the same molecule?
A: 0 of 6

Q: With `Cc1cc(C)nc(NS(=O)(=O)c2ccc(NC(=O)Nc3ccc([N+](=O)[O-])cc3Cl)cc2)n1` as the molecule, how does the survivor count [1] read?
A: 6 of 6

Q: For `CN(C)Cc1cccc(CN(C)C)[c]1[Sn]([Br])([c]1ccccc1)[c]1ccccc1`, which T/C (dose: 6.25 mg/kg/injection, schedule: Q01DX009 (ip), vehicle: saline) is on record?
A: 129 and 134 % of control

Q: What about the T/C (dose: 12.5 mg/kg/injection, schedule: Q01DX009 (ip), vehicle: saline) of the same molecule?
A: 129 % of control

Q: What about the survivor count (dose: 25.0 mg/kg/injection, schedule: Q01DX009 (ip), vehicle: saline) of the same molecule?
A: 0 of 6

Q: And the survivor count (dose: 50.0 mg/kg/injection, schedule: Q01DX009 (ip), vehicle: saline)?
A: 0 of 6

Q: What about the survivor count (dose: 100.0 mg/kg/injection, schedule: Q01DX009 (ip), vehicle: saline) of the same molecule?
A: 0 of 6

Q: What about the survivor count (dose: 200.0 mg/kg/injection, schedule: Q01DX009 (ip), vehicle: saline) of the same molecule?
A: 0 of 6

Q: Which results are given for `COc1ccc(/C=C/C(=O)c2cc(C(=O)O)c(OC)cc2OC)cc1OC`?
A: T/C (dose: 100.0 mg/kg/injection, schedule: Q01DX009 (ip), vehicle: suspension in saline): 135 % of control; T/C (dose: 200.0 mg/kg/injection, schedule: Q01DX009 (ip), vehicle: suspension in saline): 132 and 134 % of control [5 of 6 alive]; survivor count (dose: 400.0 mg/kg/injection, schedule: Q01DX009 (ip), vehicle: suspension in saline): 4 of 6

Q: `CCOCCN1CCN(CCCN2c3ccccc3Sc3ccc(C(F)(F)F)cc32)CC1` was tested. Which T/C [4] did it give?
A: 140 % of control

Q: How did the survivor count (dose: 240.0 mg/kg/injection, schedule: Q01DX005 (ip), vehicle: saline with Tween-80) turn out when `CCOC(=O)/C(C#N)=C/Nc1ccc(Cl)nc1Cl` was run?
A: 6 of 6

Q: `COc1ncc[n+]([O-])n1` was tested. Which survivor count (dose: 50.0 mg/kg/injection, schedule: Q01DX009 (ip), vehicle: saline with Tween-80) did it give?
A: 6 of 6

Q: With `C=C(C)C(=O)OC1C/C(CO)=C\C(O)C/C(C)=C/C2OC(=O)C(=C)C21` (stereo not given) as the molecule, how does the T/C (dose: 5.0 mg/kg/injection, schedule: Q01DX009 (ip), vehicle: saline + alcohol) read?
A: 141 % of control

Q: What about the T/C (dose: 10.0 mg/kg/injection, schedule: Q01DX009 (ip), vehicle: saline + alcohol) of the same molecule?
A: 132 % of control

Q: And the survivor count (dose: 40.0 mg/kg/injection, schedule: Q01DX009 (ip), vehicle: saline + alcohol)?
A: 3 of 6

Q: `CSC(=C(C#N)C#N)N1CC1` was tested. Which survivor count (dose: 100.0 mg/kg/injection, schedule: Q01DX001 (ip), vehicle: DMSO) did it give?
A: 1 of 6

Q: What about the survivor count (dose: 200.0 mg/kg/injection, schedule: Q01DX001 (ip), vehicle: DMSO) of the same molecule?
A: 0 of 6

Q: And the survivor count (dose: 400.0 mg/kg/injection, schedule: Q01DX001 (ip), vehicle: DMSO)?
A: 0 of 6

Q: Which survivor count (dose: 7.5 mg/kg/injection, schedule: Q01DX005 (ip), vehicle: Klucel (hydroxypropylcellulose) (HPC)) does the source give for `COc1ccc(C2OC3=C(Nc4ccc([N+](=O)[O-])cc4N3)C2=O)cc1` (stereo not given) here?
A: 6 of 6

Q: What about the survivor count (dose: 15.0 mg/kg/injection, schedule: Q01DX005 (ip), vehicle: Klucel (hydroxypropylcellulose) (HPC)) of the same molecule?
A: 6 of 6

Q: What about the survivor count (dose: 30.0 mg/kg/injection, schedule: Q01DX005 (ip), vehicle: Klucel (hydroxypropylcellulose) (HPC)) of the same molecule?
A: 6 of 6

Q: What about the survivor count (dose: 60.0 mg/kg/injection, schedule: Q01DX005 (ip), vehicle: Klucel (hydroxypropylcellulose) (HPC)) of the same molecule?
A: 6 of 6

Q: What about the survivor count (dose: 120.0 mg/kg/injection, schedule: Q01DX005 (ip), vehicle: Klucel (hydroxypropylcellulose) (HPC)) of the same molecule?
A: 2 of 6

Q: And the survivor count (dose: 240.0 mg/kg/injection, schedule: Q01DX005 (ip), vehicle: Klucel (hydroxypropylcellulose) (HPC))?
A: 0 of 6

Q: How did the survivor count (dose: 12.5 mg/kg/injection, schedule: Q04DX003 (ip), vehicle: saline) turn out when `CN(C)/C(=N\O)c1ccccc1` was run?
A: 3 of 6

Q: What about the survivor count [4] of the same molecule?
A: 0 of 6

Q: And the survivor count (dose: 50.0 mg/kg/injection, schedule: Q04DX003 (ip), vehicle: saline)?
A: 0 of 6

Q: What about the survivor count (dose: 100.0 mg/kg/injection, schedule: Q04DX003 (ip), vehicle: saline with Tween-80) of the same molecule?
A: 0 of 6

Q: And the survivor count (dose: 200.0 mg/kg/injection, schedule: Q04DX003 (ip), vehicle: saline with Tween-80)?
A: 0 of 6

Q: What about the survivor count (dose: 400.0 mg/kg/injection, schedule: Q04DX003 (ip), vehicle: saline with Tween-80) of the same molecule?
A: 0 of 6

Q: `COc1ccc(-c2cc(=O)c3cccc(CC(=O)O)c3o2)cc1` was tested. Which T/C (dose: 100.0 mg/kg/injection, schedule: Q01DX005 (ip), vehicle: Klucel (hydroxypropylcellulose) (HPC)) did it give?
A: 141 % of control

Q: What about the survivor count (dose: 200.0 mg/kg/injection, schedule: Q01DX005 (ip), vehicle: Klucel (hydroxypropylcellulose) (HPC)) of the same molecule?
A: 2 of 6

Q: How did the T/C [2] turn out when `C/C(=N\NC(=S)N(C)C)c1ncc[nH]1` was run?
A: 127 % of control

Q: Which T/C (dose: 0.39 mg/kg/injection, schedule: Q01DX009 (ip), vehicle: water) does the source give for `CC[C@]1(O)Cc2c(O)c3c(c(O)c2[C@@H](OC2CC(N)C(O)C(C)O2)C1)C(=O)c1c(OC)cccc1C3=O` (stereo not given in full) here?
A: 130 and 149 % of control

Q: What about the T/C (dose: 0.78 mg/kg/injection, schedule: Q01DX009 (ip), vehicle: water) of the same molecule?
A: 133 and 135 % of control

Q: And the T/C (dose: 4.7 mg/kg/injection, schedule: Q04DX003 (ip), vehicle: water)?
A: 131 % of control

Q: And the survivor count (dose: 6.25 mg/kg/injection, schedule: Q01DX009 (ip), vehicle: water)?
A: 6 of 6

Q: And the T/C (dose: 9.4 mg/kg/injection, schedule: Q04DX003 (ip), vehicle: water)?
A: 132 % of control

Q: And the survivor count (dose: 12.5 mg/kg/injection, schedule: Q01DX009 (ip), vehicle: water)?
A: 4 of 6

Q: And the T/C (dose: 18.8 mg/kg/injection, schedule: Q04DX003 (ip), vehicle: water)?
A: 140 % of control

Q: What about the survivor count (dose: 25.0 mg/kg/injection, schedule: Q01DX009 (ip), vehicle: water) of the same molecule?
A: 0 of 6

Q: How did the T/C [5] turn out when `ClC1=C(Cl)C2(Cl)C3C(Cl)C(Cl)CC3C1(Cl)C2(Cl)Cl` (stereo not given) was run?
A: 86 and 90 % of control [5 of 6 alive]

Q: What about the survivor count [5] of the same molecule?
A: 3 of 6 and 6 of 6

Q: And the survivor count (dose: 100.0 mg/kg/injection, schedule: Q01DX009 (ip), vehicle: other)?
A: 3 of 6

Q: What about the survivor count (dose: 100.0 mg/kg/injection, schedule: Q01DX009 (ip), vehicle: saline + Tween-80 + alcohol) of the same molecule?
A: 0 of 6

Q: What about the survivor count (dose: 200.0 mg/kg/injection, schedule: Q01DX009 (ip), vehicle: other) of the same molecule?
A: 0 of 6 and 4 of 6

Q: What about the survivor count (dose: 200.0 mg/kg/injection, schedule: Q01DX009 (ip), vehicle: saline + Tween-80 + alcohol) of the same molecule?
A: 0 of 6

Q: What about the survivor count (dose: 300.0 mg/kg/injection, schedule: Q01DX009 (ip), vehicle: other) of the same molecule?
A: 0 of 6

Q: What about the survivor count (dose: 400.0 mg/kg/injection, schedule: Q01DX009 (ip), vehicle: saline + Tween-80 + alcohol) of the same molecule?
A: 0 of 6

Q: What about the survivor count (dose: 800.0 mg/kg/injection, schedule: Q01DX009 (ip), vehicle: saline + Tween-80 + alcohol) of the same molecule?
A: 0 of 6

Q: `COc1cc(C2=NCCc3cc4c(cc32)OCO4)cc(OC)c1OC` was tested. Which T/C (dose: 200.0 mg/kg/injection, schedule: Q01DX005 (ip), vehicle: saline) did it give?
A: 135 % of control [5 of 6 alive]

Q: And the survivor count (dose: 400.0 mg/kg/injection, schedule: Q01DX005 (ip), vehicle: saline)?
A: 0 of 6
